# Experimental data as given in the antibiotic and cytotoxicity screens of Wong et al. (2023).
# Most of the hits are listed elsewhere, so they are rarer here than in the full data.
# Key:
# HSkMC = human skeletal muscle cells; assay: cytotoxicity call (relative viability < 0.9); settings: 10 µM
# HepG2 = assay: cytotoxicity call (relative viability < 0.9); settings: 10 µM
compound,measurement,setting,value
CC(C)(C)c1ccc(O)cc1,cytotoxicity call,HSkMC,inactive
same,cytotoxicity call,HepG2,inactive
